Reference: PubChem BioAssay AID504786 (Drosophila RNAi Screening Center, 2011)
In all, the deposit lists about 21,000 reagents; this is a random part of those with a known target gene and a result. 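Primary screen; positive scores mean lost reporter signal, so the sign may be inverted from the usual convention.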 Names joined by + are all predicted targets of the reagent. Reagent sequences are not shown.

- Test: 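Positive regulators of HIF-driven reporter output in Drosophila cells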 (primary screen)
- Cell system: Drosophila S2 cells with a stable HIF luciferase reporter
- Knock-down reagent: long dsRNA against Drosophila genes, about 0.2 µg dsRNA per well of a 384-well plate
- Duration: three days of knock-down, then 20 h of DFO before reading
- Conditions: desferrioxamine (DFO) at 100 µM, an iron chelator that mimics hypoxia, for 20 h
- Measured: 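Firefly luciferase driven by the mouse ldh-a hypoxia-response element, measured after 20 h of 100 µM DFO; z-scores per plate, higher means more signal lost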
- Direction: z-score: higher = stronger loss of HIF reporter signal

Target gene,DRSC id,"z-score, replicate 1","z-score, replicate 2","z-score, replicate 3","z-score, replicate 4"
CG14454,DRSC11711,-0.2,-0.5,,
dre4,DRSC08714,0.7,3.7,,
CG14667,DRSC12253,-0.4,-0.1,,
Naa40 (N(alpha)-acetyltransferase 40),DRSC16265,-0.3,-0.2,,
CG13314,DRSC09985,-0.1,0,,
Nep7 (Neprilysin 7),DRSC15830,-0.4,0,,
Nup35 (Nucleoporin 35kDa),DRSC19999,-0.3,-0.3,,
Gfrl (Glial cell line-derived neurotrophic family receptor-like),DRSC15197,-0.3,-0.6,,
Gfrl (Glial cell line-derived neurotrophic family receptor-like),DRSC15199,-0.3,-0.1,,
Gfrl (Glial cell line-derived neurotrophic family receptor-like),DRSC15565,-0.2,-0.3,,
Gfrl (Glial cell line-derived neurotrophic family receptor-like),DRSC15719,-0.1,-0.3,,
su(r) (suppressor of rudimentary),DRSC18705,-0.4,-0.1,,
CG42710,DRSC01034,0.1,-0.2,,
CG14456,DRSC11713,-0.3,0.2,,
CG30470 (retired record),DRSC05553,-0.1,-0.3,,
CG30470 (retired record),DRSC06260,-0.1,-0.1,,
CG30470 (retired record),DRSC06261,-0.4,-0.4,,
CG30470 (retired record),DRSC06777,-0.3,-0.6,,
amrt (amaretto),DRSC19378,0,0.4,,
CG13545,DRSC04187,-0.3,-0.2,,
Or45a (Odorant receptor 45a),DRSC07487,-0.3,-0.6,,
GstD5 (Glutathione S transferase D5),DRSC16686,-0.3,-0.2,,
Brms1 (BRMS1 transcriptional repressor),DRSC19896,-0.1,0,,
CG13720,DRSC08329,-0.3,-0.9,,
whe (what else),DRSC20537,-0.1,0.4,,
Mnn1 (Menin 1),DRSC03368,-0.3,-0.8,,
CG33255 (retired record) + hpRNA:CR32205,DRSC09610,-0.2,-0.3,,
CG33255 (retired record) + hpRNA:CR32205,DRSC09611,-0.4,-0.1,,
net,DRSC00309,-0.1,-0.2,,
CG9877,DRSC04587,-0.2,-0.6,,
CR42545 (pseudo),DRSC03709,-0.3,-0.3,,
CG4502,DRSC02755,-0.4,-0.5,,
CG9733,DRSC16549,-0.1,0.5,,
"SdhC (Succinate dehydrogenase, subunit C)",DRSC16088,-0.3,-0.6,,
CG3335,DRSC10358,0,1.9,,
CG11269,DRSC04094,-0.1,-0.2,,
CG43689,DRSC18383,1.4,1.3,,
PGRP-SD (Peptidoglycan recognition protein SD),DRSC10856,-0.4,-0.6,,
CG30484,DRSC05457,-0.2,-0.1,,
CG4467,DRSC15585,-0.4,0.2,,
Acsx2 (Acyl-CoA synthetase X2),DRSC14308,-1.1,-0.8,,
CG42675,DRSC12157,-0.4,-0.7,,
ced-6,DRSC07591,-0.4,-0.8,,
CG13282,DRSC02254,-0.2,-0.1,,
eater,DRSC15969,-0.4,-0.9,-0.1,-0.4
ppk17 (pickpocket 17),DRSC02252,2.5,-0.2,,
pst (pastrel),DRSC11003,-0.3,-0.4,,
lncRNA:CR42862 (long non-coding RNA:CR42862),DRSC08348,0.4,0.3,,
Tctp (Translationally controlled tumor protein),DRSC15649,-0.2,-0.1,,
Ir100a (Ionotropic receptor 100a),DRSC14329,-0.4,-0.9,,
CG15237,DRSC04971,-0.3,-0.5,,
Pdfr (Pigment-dispersing factor receptor),DRSC18614,0.8,-0.3,,
sau (sauron),DRSC00694,-0.3,0.1,,
msl-2 (male-specific lethal 2),DRSC00829,-0.1,1,,
CG11151,DRSC19387,-0.2,0.1,,
CG6983,DRSC10757,-0.4,-0.8,,
ifc (infertile crescent),DRSC03549,-0.4,-0.3,,
thw (thawb),DRSC12552,0,0,,
"SdhCL (Succinate dehydrogenase, subunit C-like)",DRSC16078,-0.4,0.5,,
CG1486,DRSC20508,-0.2,-0.6,,
CG8135 + BBIP1,DRSC12739,-0.5,-1.1,,
CG8135 + BBIP1,DRSC16384,-0.3,-0.4,,
mahj (mahjong),DRSC04053,1.1,2.2,,
RpL38 (Ribosomal protein L38),DRSC07818,7.6,5.6,,
Mst84Dd (Male-specific RNA 84Dd),DRSC12600,-0.2,-0.5,,
Spn53F (Serpin 53F),DRSC06022,-0.3,-0.6,,
arx (asterix),DRSC10386,-0.4,-0.5,,
128up (upstream of RpIII128),DRSC05027,-0.4,-0.5,,
MFS16 (Major Facilitator Superfamily Transporter 16),DRSC04051,-0.1,-0.3,,
CG40485,DRSC20624,-0.5,-0.8,,
CG17660,DRSC00513,-0.2,-0.4,,
nsr (novel spermatogenesis regulator),DRSC04427,0,-0.2,,
CG9536,DRSC03254,-0.4,-0.4,,
Incenp (Inner centromere protein),DRSC06116,-0.3,-0.4,,
Cpr65Av (Cuticular protein 65Av),DRSC09727,-0.3,-0.6,,
CG6154,DRSC15977,0.1,0.9,,
jeb (jelly belly),DRSC06305,-0.3,-0.1,,
jeb (jelly belly),DRSC06307,-0.3,-0.3,,
sug (sugarbabe),DRSC06855,-0.2,0,,
CG11007,DRSC06023,-0.1,-0.2,,
"SdhD (Succinate dehydrogenase, subunit D)",DRSC14215,-0.1,-0.6,,
B-H1 (BarH1),DRSC19334,-0.1,-0.2,0.2,0.4
CG15641,DRSC19677,-0.4,-0.6,,

An excerpt of the results above, for reference:
Target gene,DRSC id,"z-score, replicate 1","z-score, replicate 2","z-score, replicate 3","z-score, replicate 4"
CG9536,DRSC03254,-0.4,-0.4,,
Incenp (Inner centromere protein),DRSC06116,-0.3,-0.4,,
Cpr65Av (Cuticular protein 65Av),DRSC09727,-0.3,-0.6,,
CG6154,DRSC15977,0.1,0.9,,
jeb (jelly belly),DRSC06305,-0.3,-0.1,,
jeb (jelly belly),DRSC06307,-0.3,-0.3,,
sug (sugarbabe),DRSC06855,-0.2,0,,
CG11007,DRSC06023,-0.1,-0.2,,
